From US11505580B2 (priority 2019, dated 2022)
Where no end group is shown, it is not given here.

Experiment: peptide made by a vendor (Fmoc solid-phase peptide synthesis)
Conditions: whole synthesis, HPLC

Sequence: EAGSAKELEGDPVAG
- purity (crude or final not stated): 95% or more
